{
  "source": "paper PMC10733382",
  "note": "No constants are given. Whether binding was seen depends on the method and setting. In cells and extracts the contact can be indirect. These calls come from enrichment with a bait or labelling near it, and not all partners need be listed. Tags and fused reporters may be left off the sequences shown.",
  "data": [
    {"target": "T1, FLAG-MTFP1 (Mitochondrial Fission Process 1 protein) (UniProt Q9CRB8)", "T1 sequence": "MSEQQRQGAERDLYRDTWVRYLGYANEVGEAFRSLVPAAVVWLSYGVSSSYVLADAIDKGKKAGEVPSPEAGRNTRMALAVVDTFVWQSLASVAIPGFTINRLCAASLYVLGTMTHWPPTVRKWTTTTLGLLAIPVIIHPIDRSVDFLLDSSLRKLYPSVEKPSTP", "test": "affinity purification with mass spectrometry; 500 ug liver mitochondria of Hepatocyte^FLAG-MTFP1 and control mice lysed in IP buffer (20 mM HEPES-KOH pH 7.5, 150 mM NaCl, 0.25% Triton X-100), anti-FLAG magnetic beads 2 h at 4 °C, eluates analysed by LC-MS/MS", "values": [
      {"molecule": "MRPL43 (mouse (endogenous in liver))", "binding": "binds"}
    ]},
    {"target": "T1, FLAG-MTFP1 (Mitochondrial Fission Process 1 protein)", "test": "affinity purification with mass spectrometry; 500 ug liver mitochondria of Hepatocyte^FLAG-MTFP1 and control mice lysed in IP buffer (20 mM HEPES-KOH pH 7.5, 150 mM NaCl, 0.25% Triton X-100), anti-FLAG magnetic beads 2 h at 4 °C, eluates analysed by LC-MS/MS", "remark": "another data set of the same source", "values": [
      {"molecule": "SLC25A22 (protein, UniProt Q9D6M3 1-323) MADKQISLPAKLINGGIAGLIGVTCVFPIDLAKTRLQNQQNGQRMYASMSDCLIKTIRSEGYFGMYRGAAVNLTLVTPEKAIKLAANDFFRHQLSKDGQKLTLPKEMLAGCGAGTCQVIVTTPMEMLKIQLQDAGRIAAQRKILAAQAQLSAQGGAQPSVEAPAPPRPTATQLTRDLLRNHGIAGLYKGLGATLLRDVPFSIVYFPLFANLNQLGRPSSEEKSPFYVSFLAGCVAGSAAAVAVNPCDVVKTRLQSLERGVNEDTYSGFLDCARKIWRHEGPSAFLKGAYCRALVIAPLFGIAQVVYFLGIAESLLGLLQEPQA", "binding": "binds"},
      {"molecule": "SLC25A11 (protein, UniProt Q9CR62 1-314) MAATASPGAGRMDGKPRTSPKSVKFLFGGLAGMGATVFVQPLDLVKNRMQLSGEGAKTREYKTSFHALTSILKTEGLKGIYTGLSAGLLRQATYTTTRLGIYTVLFERLTGADGTPPGFLLKALIGMTAGATGAFVGTPAEVALIRMTADGRLPADQRRGYKNVFNALVRIAREEGVPTLWRGCIPTMARAVVVNAAQLASYSQSKQFLLDSGYFSDNILCHFCASMISGLVTTAASMPVDIVKTRIQNMRMIDGKPEYKNGLDVLLKVVRYEGFFSLWKGFTPYYARLGPHTVLTFIFLEQMNKAYKRLFLSG", "binding": "binds"},
      {"molecule": "SLC25A20 (protein, UniProt Q9Z2Z6 1-301) MADEPKPISPFKNLLAGGFGGMCLVFVGHPLDTVKVRLQTQPPSLSGQPPMYSGTLDCFRKTLMREGITGLYRGMAAPIIGVTPMFAVCFFGFGLGKKLQQKSPEDELSYPQLFTAGMLSGVFTTGIMTPGERIKCLLQIQASSGENKYSGTLDCAKKLYQEFGIRGFYKGTVLTLMRDVPASGMYFMTYEWLKNLFTPEGKSVSDLSVPRILVAGGFAGIFNWAVAIPPDVLKSRFQTAPPGKYPNGFRDVLRELIREEGVTSLYKGFNAVMIRAFPANAACFLGFEIAMKFLNWIAPNL", "binding": "binds"},
      {"molecule": "SLC25A15 (protein, UniProt Q9WVD5 1-301) MKSNPAIQAAIDLTAGAAGGTACVLTGQPFDTMKVKMQTFPDLYRGLTDCCLKTYSQVGFRGFYKGTSPALIANIAENSVLFMCYGFCQQVVRKVVGLDQQAKLSDLQNAAAGSFASAFAALVLCPTELVKCRLQTMYEMETSGKIAASQNTVWSVVKEIFRKDGPLGFYHGLSSTLLREVPGYFFFFGGYELSRSFFASGRSKDELGPVPLMLSGGFGGICLWLAVYPVDCIKSRIQVLSMTGKQTGLVRTFLSIVKNEGITALYSGLKPTMIRAFPANGALFLAYEYSRKLMMNQLEAW", "binding": "binds"},
      {"molecule": "MRRF (protein, UniProt Q9D6S7 56-262) ATKKAKAKGKGQPQARVTVNRALVEDIISLEEVDEDMKSVVEALKDNFNKTLNIRTAPGSLDHITVVTADGKVALNQIGQISMKSPQVILVNMASFPECTAAAIKAIRESGMNLNPEVEGTLIRVPIPKVTREHREMLVKLAKQNTNKAKENLRKVRTNAMNKLKKSKDKTSEDTIRLIEKQISQMADDTVAELDQHLAAKTKELLG", "binding": "binds"},
      {"molecule": "TIMM8A1 (protein, UniProt Q9WVA2 1-97) MESSTSSSGSALGAVDPQLQHFIEVETQKQRFQQLVHQMTELCWEKCMDKPGPKLDSRAEACFVNCVERFIDTSQFILNRLEQTQKSKPVFSESLSD", "binding": "binds"},
      {"molecule": "RARS2 (protein, UniProt Q3U186 17-578) LALPPESLIKSISAVPVSKKEEVADFQLSVDSLLEDNNHKSQVDTQDQARRLAEKLKCDTVVTAISAGPRTLNFKINRELLTKAVLQQVTEDGCKYGLKSELFSDLPKKRIVVEFSSPNIAKKFHVGHLRSTIIGNFIANLKEALGHQVTRINYIGDWGMQFGLLGTGFQLFGYEEKLQTNPLQHLFDVYVQVNKEATDDKNVTKLAHEFFHRLEMGDTQALSLWQRFRDLSIEEYTQIYKRLGIYFDEYSGESFYREKSQDVLKLLDSKGLLQKTAEGNVVVDLSGTGDLSSVCTVMRSDGTSLYATRDLAAAIHRMDKYNFDTMIYVADKGQRRHFQQVFQMLKIMGYDWAERCQHVPFGIVKGMKTRRGGVTFLEDVLNEVQSRMLQNMASIKTTKQLENPQETAERVGLAAVIIQDFRGTLLSDYQFSWDRVFQSRGDTGVFLQYTHARLCSLEETFGCGYLNDSNVACLQEPQSVSILQHLLRFDEVLYLSSQDLQPKHIVSYLLTLSHLAAVAHKTLQVKDSPPDVAGARLHLFKAVRSVLANGMKLLGITPVCRM", "binding": "binds"},
      {"molecule": "ALDH1B1 (enzyme, UniProt Q9CZS1 20-519) SYSTAAALPNPIPNPEICYNKLFINNEWHDAVSKKTFPTVNPTTGEVIGHVAEGDRADVDLAVKAAREAFRLGSPWRRMDASERGRLLNRLADLVERDRVYLASLETLDNGKPFQESYVLDLDEVIKVYRYFAGWADKWHGKTIPMDGEHFCFTRHEPVGVCGQIIPWNFPLVMQGWKLAPALATGNTVVMKVAEQTPLSALYLASLIKEAGFPPGVVNIITGYGPTAGAAIAQHMDVDKVAFTGSTEVGHLIQKAAGESNLKRVTLELGGKSPSIVLADADMEHAVDQCHEALFFNMGQCCCAGSRTFVEESIYREFLERTVEKAKQRKVGNPFELDTQQGPQVDKEQFERILGYIRLGQKEGAKLLCGGERLGERGFFIKPTVFGDVQDGMRIAKEEIFGPVQPLFKFKKIEEVIQRANNTRYGLAAAVFTRDLDKAIYFTQALQAGTVWVNTYNIVTCHTPFGGFKESGNGRELGEDGLRAYTEVKTVTIKVPEKNS", "binding": "binds"}
    ]}
  ]
}
